Reference: patent US8686137B2, “Heterocyclic compounds and their uses” (Amgen Inc., priority 2010, dated 2014)
Like-named read-outs stand apart in the source and are kept apart here. At least one structure is not confirmed: it was looked up by name or label, or the drawing left a doubt.

How the values were obtained:
Class I PI 3-kinases = conditions: each Class I PI 3-kinase, cited from earlier work
neutrophil = conditions: cited from earlier work
CHO-1R-AKT1-EGFP Cells = test: AKT Membrane Ruffling Assay; assay type: cell-based; conditions: 10 uM control; 10 ng/mL insulin
[1] = tested on: MDA MB468 Forkhead-DiversaGFP Cells; test: Forkhead Translocation Assay; assay type: cell-based; conditions: 10 uM control
U2OS EGFP-2×FYVE Cells = test: Class III PI(3)P assay; assay type: cell-based; conditions: 10 uM control

SMILES	IC50 (Class I PI 3-kinases; read-out: IC50 values against each of these PI 3-kinases)	neutrophil migration (neutrophil)	superoxide release (neutrophil)	AKT localisation (CHO-1R-AKT1-EGFP Cells)	Forkhead localisation [1]	PI(3)P on endosomes (U2OS EGFP-2×FYVE Cells)	IC50 (Class I PI 3-kinases; read-out: IC50 values against each of the various Class I PI 3-kinases)
O=c1cc(N2CCOCC2)oc2c(-c3ccccc3)cccc12 [LY294002]	~1000 nM	block	block				
COC[C@H]1OC(=O)c2coc3c2[C@@]1(C)C1=C(C3=O)[C@@H]2CCC(=O)[C@@]2(C)C[C@H]1OC(C)=O [wortmannin]		block	block	AKT is cytoplasmic	Forkhead is nuclear	PI(3)P depleted from endosomes	1 to 10 nM
